# Values of other authors in patent US7919510B2 (priority 2005, dated 2011).
# How the values were obtained:
# [1] = 11 patients with persistent shock, up to 30 days; cited from earlier work
# [2] = human migraine, single i.v. administration; cited from earlier work
smiles,measurement,setting,value
"CN=C(N)NCCC[C@H](N)C(=O)O.Cl [L-NMMA, L-N^G methylarginine hydrochloride]",survival rate,[1],72%
same,response rate,[2],67%
